Measured values as given in PubChem BioAssay AID256 (DTP/NCI, 2004).
The list is a part of this screen's results and no random one: it is rich in T/C values a quarter to a half above the control, in often repeated tests (any T/C) and in doses without a T/C. Further doses and runs are listed elsewhere. T/C: endpoint of the treated group in % of that of the vehicle group. Some doses have a count of surviving animals in place of a T/C: the source holds a T/C of zero for them, seemingly a mark for toxic or unscored doses. Some doses without a T/C left all or most animals alive at the check, yet need not have been tolerated: survival well below the control is almost never listed, so the zero probably covers shortened survival too. Survivors were counted at the toxicity check, usually on the fifth day, unless a day is given; later deaths do not show. Schedule codes are those of the source, taken here to give the interval after Q, in days (D) or hours (H), and the number of doses after X. For survival time, the PubChem record calls one and a half times the control and up active, and a quarter to a half above the control has no call in these data; cut-offs in other NCI protocols can differ. Some entries hold several experiments; their values stand side by side, smallest first. Additions like (4×) say how often a value occurs here. Some T/C values carry the count of animals alive at the toxicity check (mostly the fifth day); without a count, all were alive then.

Tested on: CD2F1 mice, L1210 leukemia ip, survival T/C
Test: NCI In Vivo Anticancer Drug Screen. Data for tumor model L1210 Leukemia (intraperitoneal) in CD2F1 (CDF1) mice
Conditions: higher T/C = longer survival
Method in brief: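 Transplantable tumor in mice; compound-treated vs vehicle-treated groups. Read-out = treated/control ratio of the measured endpoint.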

[1] = T/C endpoint: mean survival time, dose: 100.0 mg/kg/injection, schedule: Q04DX002 (ip), vehicle: saline with Tween-80
[2] = T/C endpoint: mean survival time, dose: 200.0 mg/kg/injection, schedule: Q04DX002 (ip), vehicle: saline with Tween-80
[3] = T/C endpoint: mean survival time, dose: 400.0 mg/kg/injection, schedule: Q04DX002 (ip), vehicle: saline with Tween-80
[4] = T/C endpoint: mean survival time, dose: 100.0 mg/kg/injection, schedule: Q01DX009 (ip), vehicle: saline with Tween-80
[5] = T/C endpoint: mean survival time, dose: 400.0 mg/kg/injection, schedule: Q04DX003 (ip), vehicle: saline
[6] = T/C endpoint: mean survival time, dose: 100.0 mg/kg/injection, schedule: Q04DX003 (ip), vehicle: saline with Tween-80
[7] = T/C endpoint: mean survival time, dose: 200.0 mg/kg/injection, schedule: Q04DX003 (ip), vehicle: saline with Tween-80
[8] = T/C endpoint: mean survival time, dose: 400.0 mg/kg/injection, schedule: Q04DX003 (ip), vehicle: saline with Tween-80
[9] = T/C endpoint: mean survival time, dose: 200.0 mg/kg/injection, schedule: Q04DX003 (ip), vehicle: saline
[10] = T/C endpoint: mean survival time, dose: 100.0 mg/kg/injection, schedule: Q04DX003 (ip), vehicle: saline

CN(Cc1cnc2nc(N)nc(N)c2c1)c1ccc(C(=O)NC(CCC(=O)O)C(=O)O)cc1 (stereo not drawn)
T/C (T/C endpoint: median survival time, dose: 2.0 mg/kg/injection, schedule: Q01DX005 (ip), vehicle: other): 140 % of control

Cn1cnc([N+](=O)[O-])c1[Se]c1nc(N)nc2c1ncn2C1OC(CO)C(O)C1O (stereo not drawn)
T/C (T/C endpoint: mean survival time, dose: 4.0 mg/kg/injection, schedule: Q01DX009 (ip), vehicle: distilled water + Tween-80): 126 % of control
T/C (T/C endpoint: mean survival time, dose: 12.5 mg/kg/injection, schedule: Q01DX005 (ip), vehicle: saline): 127 % of control
T/C (T/C endpoint: mean survival time, dose: 16.0 mg/kg/injection, schedule: Q01DX009 (ip), vehicle: distilled water + Tween-80): 133 and 148 % of control
T/C (T/C endpoint: mean survival time, dose: 25.0 mg/kg/injection, schedule: Q01DX005 (ip), vehicle: saline): 131 % of control
T/C (T/C endpoint: mean survival time, dose: 50.0 mg/kg/injection, schedule: Q01DX005 (ip), vehicle: saline): 144 % of control
T/C (T/C endpoint: mean survival time, dose: 64.0 mg/kg/injection, schedule: Q01DX009 (ip), vehicle: distilled water + Tween-80): 130 % of control [4 of 6 alive]
survivor count (T/C endpoint: mean survival time, dose: 128.0 mg/kg/injection, schedule: Q01DX009 (ip), vehicle: distilled water + Tween-80): 2 of 6

CN(C)c1nc2c(N)ncnc2n1C1OC(CO)C(O)C1O (stereo not drawn)
survivor count [1]: 0 of 3
survivor count [2]: 0 of 3
survivor count (T/C endpoint: mean survival time, dose: 400.0 mg/kg/injection, schedule: Q01DX001 (ip), vehicle: saline): 2 of 6
survivor count [3]: 0 of 3

[Cl][Dy]([Cl])[Cl]
survivor count [4]: 6 of 6

CC(=O)[O][Pb]([O]C(C)=O)([c]1ccccc1)[c]1ccccc1
survivor count (T/C endpoint: mean survival time, dose: 25.0 mg/kg/injection, schedule: Q01DX009 (ip), vehicle: Klucel (hydroxypropylcellulose) (HPC)): 6 of 6

COC1=C2CCCC2=[N+]2CCCCC2C1 (stereo not drawn)
survivor count [5]: 0 of 6

O=C/C(Cl)=C(/Cl)C(=O)O
survivor count (T/C endpoint: mean survival time, dose: 40.0 mg/kg/injection, schedule: Q01DX009 (ip), vehicle: saline with Tween-80): 2 of 6
survivor count [1]: 0 of 3
survivor count [2]: 0 of 3
survivor count [3]: 0 of 3

c1cc(CSc2ncnc3nc[nH]c23)ccn1
T/C (T/C endpoint: mean survival time, dose: 600.0 mg/kg/injection, schedule: Q01DX001 (ip), vehicle: saline): 134 % of control

Cc1ccc(S(=O)(=O)N/N=C/C(Br)=C(/Br)C(=O)O)cc1
survivor count (T/C endpoint: mean survival time, dose: 200.0 mg/kg/injection, schedule: Q01DX009 (ip), vehicle: Klucel (hydroxypropylcellulose) (HPC)): 5 of 6

CNC(C)COc1ccc(O)cc1 (stereo not drawn)
survivor count (T/C endpoint: mean survival time, dose: 400.0 mg/kg/injection, schedule: Q01DX009 (ip), vehicle: saline): 3 of 6

Cc1cn(C2CCC3(C)C(=CCC4C3CCC3(C)C(C(C)CCCC(C)C)CCC43)C2)c(=O)[nH]c1=O (stereo not drawn)
survivor count (T/C endpoint: mean survival time, dose: 18.8 mg/kg/injection, schedule: Q01DX001 (ip), vehicle: Klucel (hydroxypropylcellulose) (HPC)): 3 of 3

O=S(=O)(O)SNCCN1CCOCC1
survivor count [6]: 0 of 6
survivor count [7]: 1 of 6
survivor count [8]: 3 of 6

CN=NC(C)C
T/C (T/C endpoint: mean survival time, dose: 25.0 mg/kg/injection, schedule: Q01DX009 (ip), vehicle: saline with Tween-80): 133 % of control
T/C (T/C endpoint: mean survival time, dose: 50.0 mg/kg/injection, schedule: Q01DX009 (ip), vehicle: saline with Tween-80): 141 % of control
T/C [4]: 138 % of control

Cc1cccc2c1NC(=O)C2=O
survivor count (T/C endpoint: median survival time, dose: 50.0 mg/kg/injection, schedule: Q04DX002 (ip), vehicle: saline with Tween-80): 3 of 3
survivor count (T/C endpoint: median survival time, dose: 200.0 mg/kg/injection, schedule: Q04DX002 (ip), vehicle: saline with Tween-80): 3 of 3

Cc1nc(N)c2ncn(C3OC(CO)C(O)C3O)c2n1 (stereo not drawn)
survivor count [2]: 1 of 3
survivor count [3]: 0 of 3

Cc1ccc(C2OC2C(=O)c2ccccc2)cc1 (stereo not drawn)
survivor count [2]: 3 of 3

CCCCNCC(=O)O[C@]1(CC)C(=O)OCc2c1cc1n(c2=O)Cc2cc3ccccc3nc2-1
T/C (T/C endpoint: median survival time, dose: 30.0 mg/kg/injection, schedule: Q04DX002 (ip), vehicle: saline): 130 % of control
survivor count (T/C endpoint: median survival time, dose: 60.0 mg/kg/injection, schedule: Q04HX004 (iv), vehicle: dextrose): 0 of 6
survivor count (T/C endpoint: median survival time, dose: 120.0 mg/kg/injection, schedule: Q04DX002 (ip), vehicle: saline): 6 of 6

COc1ccc(NC(=O)Nc2ccc(Cl)cc2OC)cc1
survivor count [1]: 3 of 3

O=C(COc1ccc(Cl)c(Cl)c1)Nc1ccc[n+](Cc2cccc(Cl)c2S(=O)(=O)F)c1
survivor count [8]: 3 of 6

O=S(=O)(F)/C=C/c1ccccc1
survivor count [8]: 3 of 6

CCCCNCCCC
survivor count [9]: 0 of 6
survivor count [5]: 0 of 6

CC(C)=NO
survivor count [8]: 0 of 6

O=[N+]([O-])c1ccc(N/N=C/c2ccc(CO)cc2)c([N+](=O)[O-])c1
survivor count [10]: 6 of 6

CC[C@@]1(O)C(=O)OCc2c1cc1n(c2=O)Cc2cc3cc(O)ccc3nc2-1
T/C (T/C endpoint: mean survival time, dose: 1.0 mg/kg/injection, schedule: Q04DX003 (ip), vehicle: other): 133 % of control
T/C (T/C endpoint: mean survival time, dose: 8.0 mg/kg/injection, schedule: Q04DX003 (ip), vehicle: other): 146 % of control
survivor count (T/C endpoint: mean survival time, dose: 25.0 mg/kg/injection, schedule: Q04DX003 (ip), vehicle: water): 6 of 6
survivor count (T/C endpoint: mean survival time, dose: 50.0 mg/kg/injection, schedule: Q04DX003 (ip), vehicle: water): 4 of 6
survivor count (T/C endpoint: mean survival time, dose: 100.0 mg/kg/injection, schedule: Q04DX003 (ip), vehicle: water): 1 of 6
survivor count (T/C endpoint: mean survival time, dose: 200.0 mg/kg/injection, schedule: Q04DX003 (ip), vehicle: water): 0 of 6
T/C (T/C endpoint: median survival time, dose: 1.5 mg/kg/injection, schedule: Q04DX002 (ip), vehicle: saline): 135 and 142 % of control
T/C (T/C endpoint: median survival time, dose: 3.0 mg/kg/injection, schedule: Q04DX002 (ip), vehicle: saline): 146 (3×), 153, 155, 183 % of control
T/C (T/C endpoint: median survival time, dose: 6.0 mg/kg/injection, schedule: Q04DX002 (ip), vehicle: saline): 135, 146, 162, 170 (2×), 183 % of control
T/C (T/C endpoint: median survival time, dose: 12.0 mg/kg/injection, schedule: Q04DX002 (ip), vehicle: saline): 164, 170, 177, 180, 183, 333 % of control
T/C (T/C endpoint: median survival time, dose: 24.0 mg/kg/injection, schedule: Q04DX002 (ip), vehicle: saline): 147, 170, 174, 200, 230, 264 % of control
T/C (T/C endpoint: median survival time, dose: 24.0 mg/kg/injection, schedule: Q04DX002 (ip), vehicle: suspension in saline): 125 % of control

O=[N+]([O-])c1cccc(C[n+]2ccccc2C2OCCO2)c1
survivor count (T/C endpoint: mean survival time, dose: 50.0 mg/kg/injection, schedule: Q04DX003 (ip), vehicle: saline): 6 of 6
survivor count [10]: 2 of 6
survivor count [9]: 0 of 6
survivor count [5]: 0 of 6

COc1ccc2c(c1OC(C)=O)-c1cc(OC(C)=O)cc3c1C(C2)NCC3 (stereo not drawn)
survivor count (T/C endpoint: mean survival time, dose: 50.0 mg/kg/injection, schedule: Q04DX003 (ip), vehicle: saline with Tween-80): 2 of 6

CCC(=O)c1ccc(O)c(O)c1
survivor count (T/C endpoint: mean survival time, dose: 200.0 mg/kg/injection, schedule: Q01DX009 (ip), vehicle: saline with Tween-80): 2 of 6
survivor count (T/C endpoint: mean survival time, dose: 400.0 mg/kg/injection, schedule: Q01DX009 (ip), vehicle: saline with Tween-80): 1 of 6

O=C(O)c1cccc(CBr)c1CBr
survivor count (T/C endpoint: mean survival time, dose: 100.0 mg/kg/injection, schedule: Q01DX001 (ip), vehicle: saline with Tween-80): 0 of 6
survivor count (T/C endpoint: mean survival time, dose: 200.0 mg/kg/injection, schedule: Q01DX001 (ip), vehicle: saline with Tween-80): 0 of 6
survivor count (T/C endpoint: mean survival time, dose: 400.0 mg/kg/injection, schedule: Q01DX001 (ip), vehicle: saline with Tween-80): 0 of 6

ClCCc1cnc[nH]1
survivor count (T/C endpoint: mean survival time, dose: 200.0 mg/kg/injection, schedule: Q01DX005 (ip), vehicle: water): 0 of 6
survivor count (T/C endpoint: mean survival time, dose: 400.0 mg/kg/injection, schedule: Q01DX005 (ip), vehicle: water): 0 of 6

Cc1cc(C)nc(C)c1.[Cl-].[Cl-].[Cl-].[Cl-].[Pt+2]
survivor count [7]: 0 of 4
survivor count [8]: 0 of 4

ClC1=NC(Cl)C(Cl)=N/C1=N\c1ncn[nH]1 (stereo not drawn)
survivor count [6]: 5 of 6
survivor count (T/C endpoint: mean survival time, dose: 200.0 mg/kg/injection, schedule: Q04DX003 (ip), vehicle: saline sonified): 2 of 6
survivor count (T/C endpoint: mean survival time, dose: 400.0 mg/kg/injection, schedule: Q04DX003 (ip), vehicle: saline sonified): 1 of 6
